Measured values taken from publication doi:10.1101/2021.11.29.470412.

B1: Vps5 (co-IP with Vrl1, Figures 3C and 3D) (protein, UniProt Q92331 1-675)
chain: MDYEDNLEAPVWDELNHEGDKTQSLVSNSIESIGQISTNEERKDNELLETTASFADKIDLDSAPEWKDPGLSVAGNPQLEEHDNSKADDLINSLAPEQDPIADLKNSTTQFIATRESGGALFTGNANSPLVFDDTIYDANTSPNTSKSISGRRSGKPRILFDSARAQRNSKRNHSLKAKRTTASDDTIKTPFTDPLKKAEKENEFVEEPLDDRNERRENNEGKFTASVEKNILEQVDRPLYNLPQTGANISSPAEVEENSEKFGKTKIGSKVPPTEKAVAFKVEVKDPVKVGELTSIHVEYTVISESSLLELKYAQVSRRYRDFRWLYRQLQNNHWGKVIPPPPEKQSVGSFKENFIENRRFQMESMLKKICQDPVLQKDKDFLLFLTSDDFSSESKKRAFLTGSGAINDSNDLSEVRISEIQLLGAEDAAEVLKNGGIDAESHKGFMSISFSSLPKYNEADEFFIEKKQKIDELEDNLKKLSKSLEMVDTSRNTLAASTEEFSSMVETLASLNVSEPNSELLNNFADVHKSIKSSLERSSLQETLTMGVMLDDYIRSLASVKAIFNQRSKLGYFLVVIENDMNKKHSQLGKLGQNIHSEKFREMRKEFQTLERRYNLTKKQWQAVGDKIKDEFQGFSTDKIREFRNGMEISLEAAIESQKECIELWETFYQTNL
B2: Atg20 (co-IP with Vrl1-3HA, Figure 3C) (protein, UniProt Q07528 1-640)
chain: MSDLNDVQENAKLNSETRNTGKAEPPHGTTEYVAEAEISKNGVGSPKKSPKKGKVGKGDNNKVETELVHTALLEKDNPFMEEGPTGFTKSALLEIPGMRSHNLKNPNEDYEDDSEGLLPLNQESNAETCRTSLSGSINSMNGETSASEEPSVSNRKKSARIHILEAKRVSEGQGRAYIAYVIQFENSTVQRRYSDFESLRSILIRLFPMTLIPPIPEKQSIKNYGKSITGSSSKYLLPSEGSGSVDLSLSVIHASVNNSDEKLIRHRIRMLTEFLNKLLTNEEITKTSIITDFLDPNNHNWHEFVNSSSTFSSLPKSILQCNPLDPTNTTRIHAMLPIPGSSSQLLLNKESNDKKMDKERSKSFTNIEQDYKQYENLLDNGIYKYNRRTTKTYHDLKSDYNEIGEVFAQFAHEQAQVGELAEQLSYLSNAFSGSSISLEKLVGRLYYNINEPLNESVHMATSARELIKYRKLKYLQNEMIKKSLNSKRAQLEKLEAQNNEYKDVDKIIDNEMSKSHTINLERPNNNTGSGGKSYGGKLFNGFNKLASMVKDSVKYQETDPHTASINLKKEIEQLSESLEVTENDLEVISKVIKNDQLPKFSKEREVDLSEILKHYSRYMRNYARQNLEIWKEVKRHQDFA
B3: Mvp1 (co-IP with Vrl1-3HA, Figure 3C) (protein, UniProt P40959 1-511)
chain: MDNYEGSDPWNTSSNAWTKDDDHVVSTTNSEPSLNGISGEFNTLNFSTPLDTNEEDTGFLPTNDVLEESIWDDSRNPLGATGMSQTPNIAANETVIDKNDARDQNIEESEADLLDWTNNVRKTYRPLDADIIIIEEIPEREGLLFKHANYLVKHLIALPSTSPSEERTVVRRYSDFLWLREILLKRYPFRMIPELPPKRIGSQNADQLFLKKRRIGLSRFINLVMKHPKLSNDDLVLTFLTVRTDLTSWRKQATYDTSNEFADKKISQEFMKMWKKEFAEQWNQAASCIDTSMELWYRITLLLERHEKRIMQMVHERNFFETLVDNFSEVTPKLYPVQQNDTILDINNNLSIIKKHLETTSSICKQETEEISGTLSPKFKIFTDILLSLRSLFERYKIMAANNVVELQRHVELNKEKLESMKGKPDVSGAEYDRIKKIIQKDRRSIIEQSNRAWLIRQCILEEFTIFQETQFLITRAFQDWAKLNSNHAGLKLNEWEKLVTSIMDMPISRE
B4: Snx41 (co-IP with Vrl1-3HA, Figure 3C) (protein, UniProt Q04053 1-625)
chain: MDYNIFEAVHEQQSSTSDMDLSEEDNNPFVGTHHLYASGIGTTIGEARPENENSPPSSSSLPSSPAHSSSAGSSRASTSSSTSSHAVVEADAETEPFVSLSMSTTATISKFTPHDMNGTQQIQIIDAGDFKDPWGKHAIGYVILYENNKIIRRYSEFHSLRQSLTRLLPTIIIPPIPSKHSLLKYIWSPINAANDSKIISTRKKMLNSFLSNCLNIQEISNDIVFQKFLNPEFNWKDVLSSSPIIILPLNNLLAPPLSPTKPSPLHSILPIPSNSSLRNYNSIWQQHITVKSHNEISNLPTEILQNESQFTHIENLFQNYKRIITHLLKNIRSNKSHFHSLSTYFAELGAYYNAFSLENDITMPNSLRESENNSNNPMMEIISHIEKTGHSFDVIYISSEILIEKYTSILEDPINELLQFLNESFKVLNFKKLKFLQFKILERLIIEKETKLSSLTEIENQLQKINESLTRSTILTDENYKDTKAADLTFVKKDVRSLSKSSSNSSSSGHQNEIHIGASKLNYKTSTPTMNLNKLEIKQLTEQERSKQIKQLNQDLSKLKDCLSICISDMLEINNSSYNSLMHTYNHINLTIGKILKLFAASFKAWIKECLKNWKLAKLQIDEAL
B5: Vps17 (co-IP with Vrl1-3HA, Figure 3C) (protein, UniProt P32913 1-551)
chain: MTSAVPYDPYDDLDNNPFAEPQEEDSEPAATTTDGSSSMSEERVGTEQTAASVQDNGTANNIQNGLGEEGNATRSKTSNEHNENQQPSQPSERVILPERSDEKKKYTLLAKVTGLERFGSATGKKENPTIIFDCSTNLPTFRKQQYKNVKKSYEEFHQLFKYLNVAIQESFVPTLPSAYTTFGINSEEDRMKVTRNFQLWFNRLSQDPLIIRNEEVAFFIESDFNTYTPINKSKSLASGLKRKTLKQLAPPYDEITELAEFRPLVKSIYVVSQSLQEKLLRVSRNRKMMVQEENAFGQDFVNLDEHNKLYRRYGKILTAVGDIDSIIATMDMATLYDGLEWIVRDAYAVKEALTNRHFIMRNLVQAQQNSKAKQEQARRFRSRRDINPMKIDEALRQLKAAAKNEQVLTLKLQRITSNMIIERKQWISWYEEWIRSSIKEFTLRKIEYERKKLTLLERVRSDIRKADENGGLSRLGRHAVSNNNSDTSQTLKGDSWTGESNRKSQIPINKIAHTEFDDELFTEDDGYNSQDSDTTSLNARHAASLLGMSTK
B6: Vin1 (co-IP with overexpressed Vrl1-3HA, Figure 3C) (protein, UniProt P36158 1-585)
chain: MENDKASHASPSIGVNEFVVQGEISIDDSERSVKSVSVSISDDEDSKTDVQDNMATPSTRSKFQTDLAIDNRLLEKDPKYKKLFTEKRRRRRPESCINLMTKGKGTGQKDNINDQIFSLRILPGSDLNSLKDSLWIIKISTQPDVEKTIARAFSDFYWLYHQLQNNHWGKTIPPPTRSNILVEKDEFAINHLFMIRNNEKYDPIFNFKPEYIISLQLMAMIKHIFNDKVLRLDSNFIDFISWDDDLPESLQIVVDDSTFTGDKILMTSSQFRELKEFHKQSKKVESITNSHASLIPVTELTEIYISPTKLFSRKDYQRLFQPQSTDNTFNNNDPLIQEWIPKSKTLFTSLSFGSSAPTYQEASTEIQACHDWVSISKEQWKQLLYHVLQYIVDEAVKVNSVINEFTECLKQISLDEVIRANSELFLKFSKLNESFLKKFKGASRQDILKLIILFDENVRFCESFESILNQRLKLGKILSIIEVDLDKKKNFLDKLSPGNNNSNNEDLKIRTAEDEYRIVLKRYNRVKQSWEKIMEDILNERKEFEKREAAEVNSCLKSIRDLNMDEKKHYLQLWQDFVPDEHISQ
B7: Snx4 (co-IP with Vrl1-3HA, Figure 3C) (protein, UniProt P47057 1-423)
chain: MTDKGKNDLTSKAKDKARGNPEKPPYWFEIIVSDPQKRTGDPGSSSGYVSYQISTKTNNTSFYDNRGDPESIIVVHRRYSDLLLLHDILLNRFPTCIIPPLPDKKVFQYIAGDRFSQRFTQKRCHSLQNFLRRVSLHPDLSQSKVFKTFLVSKDWESHRKVLQDSLQPNKDEVTDAFMNAFKTVHKQNEEFTEIREKSDKLDRTVTKIDKLFHKVVKKNDSMSEDYTKLGSNLQELQELVTGENEELAAKLKIFNEGVTQLSYGLQDLTKYLDYEYIVDLKDLEHYIDSMRQLIKLKDQKQIDYEELSDYLTRSIKEKNNLISGYGGSNFFANKLEELAGINQEASRREKINKLEGKITSLTGELENAKKVADGFEQECLKEIDHFESVKTAEIKKSLGSLADHHIEFYERILEAWEKVDDSL
B8: Vin1-3HA (protein, UniProt P36158 1-585)
chain: B6 chain

molecular target: Vrl1-3HA (overexpressed) (S. cerevisiae); experiment: co-IP

binding	Binder
no binding	B1
no binding	B2
no binding	B3
no binding	B4
no binding	B5
binds	B6
no binding	B7

molecular target: Vrl1^D373A-Envy (S. cerevisiae); experiment: co-IP

binding	Binder
binds	B8

No constants are given. Whether binding was seen depends on the method and setting. In cells and extracts the contact can be indirect. A result given as binding can be weak or reduced; the word gives no strength.
